The results in this text go back to paper PMC10929186.

Chains of the proteins cited; added tags and fusions are not shown.
UniProt P14602: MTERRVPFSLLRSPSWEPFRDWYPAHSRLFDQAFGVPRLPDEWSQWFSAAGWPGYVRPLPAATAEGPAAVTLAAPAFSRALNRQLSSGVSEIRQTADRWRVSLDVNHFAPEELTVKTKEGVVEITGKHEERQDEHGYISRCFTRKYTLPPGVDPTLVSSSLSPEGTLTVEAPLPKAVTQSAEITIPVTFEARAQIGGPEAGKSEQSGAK
UniProt P07356: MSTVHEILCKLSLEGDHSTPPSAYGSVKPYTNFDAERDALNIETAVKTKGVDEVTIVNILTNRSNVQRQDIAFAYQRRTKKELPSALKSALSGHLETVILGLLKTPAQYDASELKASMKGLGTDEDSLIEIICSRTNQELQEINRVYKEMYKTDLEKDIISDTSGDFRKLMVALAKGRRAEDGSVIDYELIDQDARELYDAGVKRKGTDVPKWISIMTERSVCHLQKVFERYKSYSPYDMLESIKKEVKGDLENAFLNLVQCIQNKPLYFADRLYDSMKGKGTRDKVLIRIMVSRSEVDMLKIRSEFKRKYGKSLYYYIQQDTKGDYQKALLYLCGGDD

Results are given in words; binding and its absence hold for the method and conditions named. In cells and extracts the contact can be indirect. A yes stands for co-enrichment or nearness to the bait. Other partners may have been found.

For the assay, the target named is Hspb1 (mouse (endogenous in primary acinar cells and 266-6 cells)) (UniProt P14602). Kind of assay: affinity purification with mass spectrometry; anti-Hspb1 antibody immunoprecipitation from primary acinar cells treated with 100 nM caerulein for 6 hours; precipitate analysed by mass spectrometry.

Anxa2 (from UniProt P07356 1-339): the binding result is reported as “binds”.
